PubChem BioAssay AID2685 (National Center for Advancing Translational Sciences (NCATS), 2010)
This is one part of the list. The main result of the screen is listed elsewhere. These columns were measured beside it and carry no call. The list favours compounds with an active or inconclusive main result. The note in brackets gives the kind of curve behind each potency; many fits are weak.

Assay: qHTS Assay for Lipid Storage Modulators in Drosophila S3 Cells;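 on cell number change: cells counted by Cell Tracker Red CMTPX staining in the red channel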
Settings: BODIPY lipid droplet fluorescence, 18-24 h; for cell number change: measured here: cell count max response, cells fed with added oleic acid
In short: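 Drosophila S3 cells got compounds at several concentrations plus oleic acid (400 uM solution). Laser-scanning cytometry with 488 nm excitation read lipid droplets at 500-530 nm and cells at 575-640 nm. Percent activity was relative to 20 uM Triacsin C.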

[1] = measured here: lipid fluorescence (Fed channel) AC50, cells fed with added oleic acid
[2] = measured here: cell number channel AC50, cells fed with added oleic acid

SMILES: CCn1c(SCc2nc3ccccc3[nH]2)nnc1-c1ccccc1OC
- cell number change: -4.42%
- AC50 [1]: 3.26 µM [rising, full curve, poor fit]

SMILES: CCN(CC)S(=O)(=O)c1ccc(S(=O)(=O)N2CCCC2C(=O)O)cc1 (stereo unspecified)
- cell number change: 25.7%

SMILES: CC(=O)c1c(C)[nH]c(C(=O)COC(=O)c2ccc(Cl)nc2)c1C
- cell number change: -17.6%
- AC50 [1]: 0.651 µM [falling, partial curve, poor fit]

SMILES: C/C(=N/N=C(/C)c1cccs1)c1cccs1
- cell number change: 26.4%
- AC50 [1]: 14.6 µM [rising, partial curve]

SMILES: O=C(COC(=O)c1ccc([N+](=O)[O-])o1)Nc1cccc2ccccc12
- cell number change: 26.8%

SMILES: Cc1cc(C)c(C)c(OCC(=O)N2CCN(c3ccccn3)CC2)c1
- cell number change: 25.5%

SMILES: CCC(C)(C)C1CCc2c(sc(NC(=O)c3cccs3)c2C(N)=O)C1 (stereo unspecified)
- cell number change: 27.5%
- AC50 [1]: 6.51 µM [rising, single point]

SMILES: COc1ccc(CCNC(=O)c2sc3ccccc3c2Cl)cc1OC
- cell number change: -13.4%
- AC50 [1]: 23.1 µM [falling, single point]

SMILES: CCOC(=O)c1c(N)sc2c1CCC(C)C2 (stereo unspecified)
- cell number change: -34.1%
- AC50 [2]: 13 µM [falling, partial curve]
- AC50 [1]: 18.4 µM [falling, single point]

SMILES: Cc1ccc(NC(=O)Nc2nnc(Cc3ccc([N+](=O)[O-])cc3)s2)cc1C
- cell number change: -31.8%
- AC50 [2]: 7.31 µM [falling, partial curve]
- AC50 [1]: 8.2 µM [falling, partial curve, poor fit]

SMILES: CCOc1ccc(NS(=O)(=O)c2ccc(C(=O)N3CC(C)OC(C)C3)cc2)cc1 (stereo unspecified)
- AC50 [1]: 23.1 µM [falling, partial curve]

SMILES: COc1ccc(C(=O)NCCn2ccc3ccccc32)c(OC)c1
- AC50 [2]: 4.11 µM [falling, single point]

SMILES: O=C(NCc1ccccc1CN1CCCCC1)c1ccccc1N1CCCC1=O
- cell number change: 10.7%
- AC50 [2]: 6.51 µM [rising, single point]
- AC50 [1]: 6.51 µM [rising, single point]

SMILES: O=C(CSc1nnc2ccccn12)NCc1cccs1
- cell number change: 36.1%
- AC50 [2]: 29.1 µM [rising, single point]
- AC50 [1]: 1.03 µM [rising, partial curve, poor fit]

SMILES: COc1cc(/C=N/NC(=O)c2ccncc2)ccc1OC(=O)c1ccco1
- cell number change: -10.3%
- AC50 [1]: 29.1 µM [rising, single point]

SMILES: COc1ccc(C2CC(O)(c3ccccc3)Oc3cc(OC)c(OC)c(OC)c32)cc1 (stereo unspecified)
- cell number change: -10.4%
- AC50 [1]: 11.6 µM [falling, partial curve, poor fit]

SMILES: O=C(OCc1cccc(C(F)(F)F)c1)c1cc(S(=O)(=O)N2CCOCC2)ccc1F
- cell number change: 25.3%

SMILES: CN(C)CCNc1ncnc2ccccc12
- cell number change: -3.71%
- AC50 [1]: 2.31 µM [falling, partial curve]

SMILES: O=C(c1ccc(S(=O)(=O)N2CCc3ccccc3C2)cc1)N1CCCCC1
- cell number change: -5.81%
- AC50 [1]: 1.3 µM [falling, full curve]

SMILES: O=S(=O)(Nc1ccccc1N1CCOCC1)c1ccc(Cl)cc1
- cell number change: -2.46%
- AC50 [1]: 0.0058 µM [rising, full curve, poor fit]

SMILES: CSCC[C@H](NC(=O)CC(C)(C)C)c1nc2ccccc2[nH]1
- cell number change: 60.2%
- AC50 [2]: 2.31 µM [rising, full curve]

SMILES: CCOC(=O)c1c(C)[nH]c(C(=O)OCC(=O)N(CC(C)C)c2c(N)n(Cc3ccccc3)c(=O)[nH]c2=O)c1C
- AC50 [2]: 2.31 µM [rising, single point]
- AC50 [1]: 4.61 µM [rising, single point]

SMILES: COc1ccc(C2NC(=S)NC(C)=C2C(=O)Nc2ccccn2)cc1 (stereo unspecified)
- cell number change: -1.71%
- AC50 [1]: 0.0058 µM [falling, full curve, poor fit]

SMILES: CC(C)CN(C(=O)CSc1nc2ccccc2c(=O)n1C)C1CCS(=O)(=O)C1 (stereo unspecified)
- cell number change: -4.62%
- AC50 [2]: 6.51 µM [falling, single point]
- AC50 [1]: 18.4 µM [rising, single point]

SMILES: CC(=O)CN1C(=O)NC(c2ccccc2)(c2ccccc2)C1=O
- cell number change: 6.58%

SMILES: CCOC(=O)N1CCN(c2ccc(C(F)(F)F)cn2)CC1
- AC50 [1]: 0.116 µM [falling, full curve, poor fit]

SMILES: CC(C)CC(=O)Nc1ccc2oc(-c3cccnc3)nc2c1
- cell number change: 16.1%

SMILES: O=C(NCC(=O)N1CCN(C(=O)c2ccco2)CC1)c1ccc(Cl)cc1
- cell number change: 31.3%
- AC50 [2]: 0.0164 µM [rising, full curve, poor fit]
- AC50 [1]: 8.2 µM [rising, partial curve]

SMILES: CC1(c2ccc(OC(F)F)cc2)NC(=O)N(CC(=O)Nc2ccc(F)cc2)C1=O (stereo unspecified)
- cell number change: 13.5%
- AC50 [1]: 0.651 µM [rising, partial curve, poor fit]

SMILES: O=S(=O)(/N=C(/Nc1ccccn1)c1ccccc1)c1ccccc1
- cell number change: 25.4%
- AC50 [1]: 32.6 µM [rising, partial curve]

SMILES: O=C(CSc1nc(=O)n2ccccc2n1)N1CCCCCC1
- AC50 [2]: 6.51 µM [rising, single point]

SMILES: C/C(=N\NC(=O)CSc1nnc(C)s1)c1ccc(O)cc1
- cell number change: -22.8%
- AC50 [2]: 0.651 µM [falling, full curve, poor fit]
- AC50 [1]: 2.31 µM [rising, single point]

SMILES: Cc1cccc(C(=O)NCC(=O)NCC2COc3ccccc3O2)c1 (stereo unspecified)
- AC50 [2]: 1.16 µM [rising, partial curve]

SMILES: COc1c(C)cc(C(=O)C2CCCN(C(=O)Cn3nc(C)nc3C)C2)cc1C (stereo unspecified)
- cell number change: 42.7%
- AC50 [2]: 9.2 µM [rising, partial curve, poor fit]
- AC50 [1]: 18.4 µM [rising, single point]

SMILES: COc1ccc(NC(=O)COC(=O)CC2CC3CCC2C3)c([N+](=O)[O-])c1 (stereo unspecified)
- cell number change: 27.6%
- AC50 [1]: 0.82 µM [rising, full curve, poor fit]

SMILES: CC(C)N1CCC(N2CCN(Cc3ccc(C#CC(C)(C)O)s3)CC2CCO)CC1 (stereo unspecified)
- cell number change: -14.2%
- AC50 [1]: 4.11 µM [falling, full curve]

SMILES: Oc1ccccc1CN1CCN(C(O)(c2ccccc2)c2ccccc2)CC1
- cell number change: -8.41%

SMILES: Cc1cc(C)c2c(N)c(S(=O)(=O)Cc3ccccc3)sc2n1
- cell number change: 5.78%
- AC50 [1]: 0.731 µM [rising, single point]

SMILES: COc1ccc(C)c(Cn2c(-c3nonc3N)nc3ccccc32)c1
- cell number change: -27.2%
- AC50 [1]: 1.16 µM [rising, single point]

SMILES: CCc1cc2c(N3CCCCC3)ncnc2s1
- cell number change: -38.6%
- AC50 [2]: 32.6 µM [falling, single point]

SMILES: O=C(CCCN1C(=O)/C(=C/c2ccccc2Cl)SC1=S)NNC(=O)c1ccc(Cl)cc1
- cell number change: 19.6%
- AC50 [1]: 0.411 µM [falling, full curve, poor fit]

SMILES: CCOC(=O)CSC1=C(C#N)C(c2ccc(C)cc2)C2=C(CCCC2=O)N1 (stereo unspecified)
- cell number change: 5.62%
- AC50 [1]: 0.731 µM [rising, full curve, poor fit]

SMILES: Cn1c(SCc2cccnc2)nc2c(c1=O)SCC2
- cell number change: -4%

SMILES: COc1ccc(N(C(=O)c2ccc(F)cc2)C2=CC3CCC(C2)N3C)cc1 (stereo unspecified)
- cell number change: -11.2%
- AC50 [1]: 8.2 µM [falling, partial curve]

SMILES: Cc1ccc(/C=C/C(=O)NCc2cccs2)cc1
- cell number change: 35.8%
- AC50 [2]: 10.3 µM [rising, partial curve, poor fit]

SMILES: Nc1nc(SCc2nc(-c3ccccc3)no2)[nH]c(=O)c1-c1ccccc1
- cell number change: 135%
- AC50 [2]: 29.1 µM [rising, single point]
- AC50 [1]: 3.26 µM [rising, full curve]

SMILES: CCOc1ccc(C(=O)NNC(=O)CCNC(=O)c2ccco2)cc1OC
- cell number change: 19%

SMILES: COCCCNCCOc1ccccc1-c1ccccc1
- cell number change: 1.95%
- AC50 [1]: 2.91 µM [falling, single point]

SMILES: CCOc1ccc(C(=S)N2CCN(C)CC2)cc1
- cell number change: -1.13%
- AC50 [2]: 0.146 µM [falling, full curve]

SMILES: CCCCC[C@H]1CN(CCCC)C(=O)[C@@H]1CC(=O)NCc1ccc(OC)cc1
- cell number change: -3.89%
- AC50 [1]: 13 µM [falling, partial curve]

SMILES: COc1ccc(CCNC(=O)CCCNC(=O)Cn2cnc3sc(C)c(C)c3c2=O)cc1OC
- cell number change: -23.9%
- AC50 [1]: 0.731 µM [falling, full curve, poor fit]

SMILES: CC(=O)Nc1ccc(NC(=O)C(C)OC(=O)c2c(C)nn(-c3ccccc3)c2Cl)cc1 (stereo unspecified)
- cell number change: -2.68%

SMILES: CCC/C(=N\NC(=O)Cc1csc(N2CCOCC2)n1)c1ccccc1
- cell number change: 60.1%
- AC50 [1]: 0.00461 µM [falling, full curve, poor fit]

SMILES: Cc1cc(C)n(C(=O)c2cccc([N+](=O)[O-])c2C)n1
- cell number change: -1.05%

SMILES: CSc1ccc2c(c1)N(CCC1CCCCN1C)c1ccccc1S2 (stereo unspecified)
- cell number change: -36.1%
- AC50 [2]: 0.00651 µM [falling, full curve, poor fit]
- AC50 [1]: 9.2 µM [falling, partial curve]

SMILES: COc1ccc(-n2nc(C#N)c(Cl)cc2=O)cc1
- cell number change: -59.8%
- AC50 [2]: 29.1 µM [falling, single point]
- AC50 [1]: 29.1 µM [falling, single point]

SMILES: O=C(NCc1cccc(Cl)c1)C1CCN(c2nnc(N3CCCC3=O)s2)CC1
- cell number change: 24.5%
- AC50 [1]: 0.651 µM [rising, full curve, poor fit]

SMILES: COC(=O)c1ccc(OCC(O)CNC2CCCC2)cc1 (stereo unspecified)
- cell number change: 13.6%
- AC50 [1]: 29.1 µM [rising, single point]

SMILES: COc1ccc(-c2nc(CN3CCC(C(=O)N4CCOCC4)CC3)c(C)o2)c(OC)c1
- cell number change: -13.3%

SMILES: COc1ccc(N(C)S(=O)(=O)c2cccc(C(=O)Nc3ccc(N4CCOCC4)cc3)c2)cc1
- cell number change: -27.3%
- AC50 [1]: 3.66 µM [falling, full curve, poor fit]

SMILES: CCCN(CC(=O)Nc1ccc(Cl)cc1Cl)C(=O)/C=C/c1cccc([N+](=O)[O-])c1
- cell number change: 6.97%
- AC50 [1]: 8.2 µM [rising, partial curve]
